Laboratory results as given in patent US12502391B2, “Multi-kinase inhibitors of VEGF and TGF beta and uses thereof” (AIVIVA BIOPHARMA, INC., priority 2018, dated 2025).
At least one structure is not confirmed: it was looked up by name or label, or the drawing left a doubt.

Key:
[1] = system: TGF beta1 mRNA; assay: TGF beta1 mRNA expression (qRT-PCR) in rabbit ear hypertrophic scar model; type: in vivo, New Zealand white rabbits; settings: 1% w/w, 100 μl intradermal on days 15 and 29, harvest Day 43
Description: The objective of this study was to examine the effect of test compounds on wound healing and TGF beta expression after dermal injury in a rabbit ear hypertrophic scar model.
(§1) In New Zealand white rabbits, maintained under a surgical plane of anesthesia, trauma stimulation of the skin on the ventral surface of both ears is initiated on Day 1. Trauma sites are evaluated on Days 8, 15, 22, 29, 36, and 43. On days 15 and 29, each site is dosed with test compounds (e.g., 1% w/w, 100 μl) by intradermal or intralesional injections.
Mammals are euthanized on Day 43, and the trauma sites are harvested and frozen for TGF beta analysis using quantitative RT-PCR (qRT-PCR) (e.g., A. K. Johnson et al., Dev. Comp. Immunol., 2006; 30(5): 473-84). TGF beta1 mRNA expression levels in treated trauma samples are compared to the expression level in the untreated trauma sample.

[2] = system: full-thickness excision wounds; assay: Histology of full-thickness excision wounds in Yucatan minipigs (fibroplasia, neovascularization); type: in vivo; settings: Yucatan minipig, two biweekly treatments
Description: In this experiment, multiple full-thickness excision wounds were made to the dorsum of Yucatan minipigs, and the wound sites were allowed to be re-epithelialized adequately. At four weeks post-wound, the wound sites had normal to pink vascularity and had pliability. Epidermal hyperplasia was observed, as expected for regenerative responses in the full-thickness wounds.
On Day 28 post-wound, a dose (e.g., 1%) of axitinib, nintedanib, riociguat, sorafenib, sunitinib, and/or lenvatinib was administered into the dermal tissue at or around the wound sites, once every two weeks on two occasions. One wound site was left untreated as the control for each pig. Please note that the particular parameters in this example are only for illustration. One skilled in the art would appreciate that the dosages, administration methods, treatment regimen, and the administration sites may be varied to achieve similar results.
On Day 59 post wound, the minipigs were sacrificed and dermal tissues were collected for qualitative and quantitative evaluation using hematoxylin and eosin, and Mason's Trichrome staining. Dermal fibroplasia was characterized by increased numbers of fibroblasts in the dermis suspended in variable amounts of collagen in wounds.

[3] = system: TGF-beta 1; assay: Dermal TGFb1 levels (ELISA) after linear incisional wounds in minipigs; type: in vivo, Gottingen Minipigs; settings: approximately 16 mg intradermally once per incisional wound, biopsies days 4, 7, 9 post-dosing
Description: The purpose of this study was to evaluate the topical effects of axitinib, nintedanib, sorafenib and lenvatinib when administered via intradermal injection to the dorsal skin along linear incisions of minipigs. Linear incisional wound was made to elicit inflammatory and wound healing process in the skin. After dosing, mammals were observed post dose for 9 days to assess the levels of TGFb1 expressions in the skin.
Three male Gottingen Minipigs® dosed once via intradermal injection along the edges of each of the linear incision wound sites for each mammal (wounds on the dorsum, perpendicular to the spine, approximately 3 cm in length and 3 cm distance from the spine). Each incisional wound received approximately 16 mg of the test compound intradermally once along both sides of the linear wound.
On days of 4, 7, and 9 post-dosing, one 4 mm dermal punch biopsy was collected for each incisional wound and processed for TGF-beta 1 analysis with ELISA, using a commercial kit (e.g., the kit from Thermo Fisher or other vendors).

[4] = system: rabbit ear hypertrophic scar; assay: Histopathology of rabbit ear wounds (neovascularization, fibrosis, re-epithelization); type: in vivo, New Zealand white rabbits; settings: rabbit ear wound, intradermal dosing of 1 wt. %
Description: as §1
At necropsy, each treatment site was harvested and preserved for hematoxylin and […] and Mason's trichrome stainings. Each lesion was examined histologically and graded for neovascularization, fibrosis and re-epithelization using a five-step/severity grading system (minimal, mild, moderate, marked, and severe). The average total score is an aggregation of these microscopic findings relating to an inflammatory response.

[5] = system: LL37-induced inflammation; assay: Histopathology (inflammation, CD4+ and CD8+ lymphocyte scores) in LL37-induced dermal inflammation model; type: in vivo; settings: mice, single intradermal injection 1.6 mg, LL-37 challenge, 48 hours
Description: In our study, mice were injected subcutaneously with 40 μl of LL-37 (3.3 mg/mL) to induce inflammatory reactions. Immediately following the LL-37 injection, axitinib, nintedanib, sunitinib, or lenvatinib were individually administered as a single intradermal injection (1.6 mg). LL-37 injection was repeated every 12 hours for a total of 4 injections. Endotoxin-free water and dexamethasone (3 mg/kg by intraperitoneal injection, twice), respectively, were used as negative and positive control groups.
At 48 hours after the initial LL-37 injection, the dorsal skin was photographed, and the severity of skin lesions were scored for redness and measured for areas of involvement.
Mice were then anaesthetized, and tissue samples of lesion sites were excised and fixed for H&E stainings and immunohistochemical analysis. Markers for inflammation (CD4 and CD8) were determined using specific antibodies. TGF beta levels are measured by mRNA expression using qPCR.
The tissue samples were analyzed for inflammation characteristics. Histopathology endpoints included inflammation, and CD4+ and CD8+T-lymphocyte immunostaining. For inflammation scores, tissues were examined histologically and scored for inflammatory cell infiltrate.

[6] = system: benign prostate hyperplasia; assay: Testosterone and phenylephrine induced benign prostate hyperplasia in rats; type: in vivo, Wistar rats; settings: intra-prostate injection on days 1 and 18
Description: BPH is a true hyperplastic process. Histologic studies have documented an increase in cell number. A study was conducted, therefore, to determine the effects of test compounds and vehicle on testosterone (TE) and phenylephrine (PE) induced benign prostate hyperplasia in rats. Male Wistar rats were induced with testosterone (2 mg/kg) plus phenylephrine (5 mg/kg) administered daily by subcutaneous injection on days 5 through 32. Vehicle or test compounds (all at 1% w/w), nintedanib, sunitinib, lenvatinib, and 0.5% doxazosin mesylate, were administered by intra-prostate injection (0.4 ml) in dorsolateral and ventral lobes on days 1 and 18. Animals were euthanized on day 32. Body weights were determined and prostate glands were harvested. The experimental design is outlined in Table 6.
At necropsy, the ventral and dorsolateral lobes of the prostate were separated and then cut into halves. The left halves were fixed in 10% neutral buffered formalin, sectioned, and stained with Hematoxylin and Eosin (H&E). Histological changes in these sections were scored. Epithelial hyperplasia was recognized as an increase in epithelial cells within normal-appearing gland profiles, primarily reflected by stratification of epithelial cells and increased presence of epithelial tufting and papillary projections. A severity grade of 0 (not present) through 5 (severe) was assigned to each sample.

Row | SMILES | mean folds of TGF beta mRNA expression versus untreated wound sample [1] | neovascularization and dermal fibroplasia relative to the untreated wound (words) [2] | neovascularization and dermal fibroplasia relative to the untreated wound (words) ([2]; listed as Axitinib) | suppression of dermal TGF beta 1 expression over time [3] | angiogenesis/neovascularization and fibrosis by histopathology versus untreated wounds (words) [4] | angiogenesis/neovascularization and fibrosis by histopathology versus untreated wounds (words) ([4]; listed as Axitinib) | scores of inflammation (inflammatory cell infiltrate), words [5] | glandular hyperplasia compared to untreated TE/PE induced prostates [6]
1 | CNC(=O)c1ccccc1Sc1ccc2c(/C=C/c3ccccn3)n[nH]c2c1 [axitinib] | lower than the expression level in the untreated wound sample | noticeably reduced neovascularization with a corresponding reduced dermal fibroplasia | significantly reduced neovascularization and reduced fibrosis | very effective in suppressing the expression of TGF beta 1 | decreased angiogenesis and fibrosis | less neovascularization than untreated wounds | prominent reductions | –
2 | CCN(CC)CCNC(=O)c1c(C)[nH]c(/C=C2\C(=O)Nc3ccc(F)cc32)c1C [sunitinib] | lower than the expression level in the untreated wound sample | – | – | very effective in suppressing the expression of TGF beta 1 | do not show any reduction in angiogenesis | – | prominent reductions | demonstrated reduction of glandular hyperplasia
